About 780 (0.22%) of roughly 360,000 compounds were called active. Inconclusive results, whose numbers are uncertain, are shown with a selection of clear calls. Cut-off read from the data, not from the text of the source: active = inhibition above about 35% (passing the limit was not always enough); inconclusive = no clear call, values can overlap the other calls.
Test system: Botulinum neurotoxin type F light chain protease (Clostridium botulinum)
Experiment: BoNT/F light chain protease inhibitors, primary screen, biochemical, flow cytometry, MLPCN library (AID 588497); note: plate controls were buffer without enzyme for full effect and enzyme alone for no effect
Conditions: Multiplex microsphere protease cleavage assay, at 10 µM, hits give high values

Compound | inhibition
CCOP(=O)(OCC)C(Nc1ccc(F)cc1)c1ccccc1 (centres undefined) | inconclusive: -5.1%
COc1ccc(OC)c(C(C)NC(=O)C(C)Cc2ccccc2)c1 (centres undefined) | inconclusive: -15.9%
COC(=O)[C@H](C)NC(=O)NCCC1=CCCCC1 | inconclusive: 33.5%
COc1ccc(CN2CCCC(C(=O)c3ccc(Cl)cc3)C2)c(O)c1 (centres undefined) | active: 34.9%
Cc1cc(=O)oc2cc(OCC(=O)N3CCC(C(N)=O)CC3)ccc12 | inactive: -8.7%
Cc1ccc(C)n1-c1ccc(N2CCOCC2)c([N+](=O)[O-])c1 | inconclusive: -37.2%
CC1(C)CC(NS(=O)(=O)c2ccc(S(N)(=O)=O)cc2)CC(C)(C)N1 | inactive: 7.1%
CN(c1ccccc1)c1nc(N)c([N+](=O)[O-])c(NCc2ccccc2)n1 | inconclusive: -27.6%
CCCCC(=O)N1CCCC(C)C1 (centres undefined) | inconclusive: 3%
Cc1cc2nc(/N=C(\N)NC(=O)C(C)C)nc(C)c2cc1C | inconclusive: 30.8%
CC1=C(C(=O)N2CCCCCC2)CC(CC(=O)NCC2CCCCC2)C(=O)N1CCCN1CCCC1=O (centres undefined) | inactive: -2.9%
COc1ccc(OCc2ccc(/C=N\NC(=O)c3sccc3C)o2)cc1 | inactive: 1.2%
CC(CC(=O)NC1CCCCC1)S(=O)(=O)c1ccc2c(c1)NC(=O)CO2 (centres undefined) | inactive: -1.3%
COc1ccc(C2C(C(C)=O)=C(C)Nc3ncnn32)cc1 (centres undefined) | inconclusive: -26.5%
CCOC(=O)c1cccc(NC(=O)c2ccc(-n3cnnn3)cc2)c1 | inactive: -1.6%
CC(C)(C)OC(=O)N[C@@H](Cc1ccccc1)c1nnc(SCC(=O)O)o1 | inactive: -1%
COc1ccc(/C=N/Nc2cc(OC)ncn2)cc1 | inactive: -3.2%
CCOc1ccc(N(CC(=O)NCCSCc2ccccc2Cl)S(C)(=O)=O)cc1 | inconclusive: -6.3%
C(CNC1C2CC3CC(C2)CC1C3)CN1CCOCC1 (centres undefined) | inconclusive: -23.3%
OC1(c2ccc(Br)cc2)CCNCC1 | inactive: 1.6%

Compound | inhibition
O=C(Oc1ccc(F)cc1)c1cccnc1 | inconclusive: -28.2%
COc1ccc(N2C(=O)CS/C2=N\C(=S)Nc2ccccc2)cc1 | inconclusive: 55%
Cn1cccc1Cc1nnc(SCC(=O)NCC2CCCO2)n1C (centres undefined) | inactive: -2.9%
c1cc(Nc2ncnc3sc4c(c23)CCC4)ccn1 | inactive: -4.2%
Cc1ccccc1S(=O)(=O)NCC1CCCO1 (centres undefined) | inconclusive: -18.7%
CC1=C(C(=O)N2CCCCCC2)CC(CC(=O)NCCN2CCOCC2)C(=O)N1Cc1ccccc1 (centres undefined) | inactive: -6%
O=S(=O)(NC1CCCCCC1)c1cccc2cccnc12 | inactive: -6.4%
Cc1cccc(NC(=O)CCCc2ccccc2)c1C | inconclusive: -8.2%
O=C(Cn1c2[n+](c3ccc(C(F)(F)F)cc31)CCCCC2)Nc1ccccc1 | inactive: -0.2%
CCOC(=O)c1c(NC(=O)Nc2ccc(F)cc2)sc2c1CCN(C)C2 | inconclusive: -23.1%
O=C(O)c1cc([N+](=O)[O-])ccc1C(=O)Nc1cccc([N+](=O)[O-])c1 | inconclusive: 2.8%
NC(=O)/C(=C/c1ccco1)C(N)=S | inconclusive: 14.6%
O=C(c1c(Cl)cccc1Cl)N1CCCCCC1 | inconclusive: -2.2%
CCOC(=O)C1CCN(C2CCN(C(=O)c3oc4c(C)c(C)ccc4c3C)CC2)CC1 | inactive: 0.2%
CSC1=NCCN1C(=O)c1c(F)cccc1Cl | inconclusive: 21%
Cc1cc(NC(=O)CSc2nnc(CNc3cccc(C(F)(F)F)c3)n2Cc2ccco2)no1 | inactive: -6.5%
Cc1cc([N+](=O)[O-])ccc1NC(=O)CN1CCN(Cc2ccccc2)CC1 | inconclusive: 11.2%
O=C(NC(Cc1ccccc1)C(=O)O)c1cccnc1Cl (centres undefined) | inconclusive: 14.3%
COc1cccc(Oc2cn[nH]c2-c2ccc(O)cc2O)c1 | inactive: -9%
CC1(C)CN=C(NCc2ccccc2)S1 | inconclusive: 23.8%

Compound | inhibition
Cc1cccc(C)c1NC(=O)C1c2cccc[n+]2CC(=O)N1Cc1ccc2c(c1)OCO2 (centres undefined) | inactive: -1.8%
CCCCC(=O)Nc1cccc(NC(=O)c2ccc(Br)cc2)c1 | inactive: -3.9%
O=C(CN1C(=O)NC2(CCCC2)C1=O)N1CCN(c2cccc(C(F)(F)F)c2)CC1 | inconclusive: -5.1%
CCS(=O)(=O)N1CCC(C(=O)Nc2ccc(C(C)=O)cc2)CC1 | inactive: 4.2%
COc1ccc(Cl)cc1NC(=O)CN(C)C(=O)Cn1c(=O)oc2ccccc21 | inconclusive: -3.7%
CCCCNC(=O)Cn1cnc([N+](=O)[O-])n1 | active: 40.4%
O=C(O)c1nnn(-c2ccc([N+](=O)[O-])cc2)c1-c1ccccc1 | inconclusive: 49.9%
[O-][N+]1=C(c2cccs2)CN(O)C1 | inconclusive: 24.4%
Cn1cc(CN2CCN(CC(C)(C)C)C(CCO)C2)c2ccccc21 (centres undefined) | inconclusive: 1%
CC(=O)Nc1nc(C)c(CCCOc2ccc([N+](=O)[O-])cc2)c(=O)[nH]1 | inconclusive: 11%
O=C(N=C1SC2CS(=O)(=O)CC2N1c1ccc(Cl)cc1)C1CCCO1 (centres undefined) | inactive: -0.7%
CCS(=O)(=O)C(C)(CCl)C(=O)Nc1ccc(C(=O)OC)cc1 (centres undefined) | inconclusive: 9.5%
CN(C)S(=O)(=O)c1ccc(Cl)c(NC(=O)C2CCN(S(=O)(=O)c3cccs3)CC2)c1 | inactive: -5.8%
CCCCc1c(C)[nH]c(=S)[nH]c1=O | inconclusive: -7.7%
CCc1ccccc1NC(=O)c1cc(-c2ccc(OC)cc2)on1 | inconclusive: 0.7%
CN(Cc1ccncc1)C1CC(=O)N(c2ccc(Cl)cc2)C1=O (centres undefined) | inactive: 4.2%
COc1ccc(-c2cc(-c3n[nH]c(=S)n3-c3cccc4ccccc34)[nH]n2)cc1 | inactive: 1.4%
C#CCN(C[C@@H]1[C@@H](OC(=O)NCc2ccccc2F)[C@@H](OC(=O)NCc2ccccc2F)Cn2c(=O)n(CCCCCC)c(=O)n21)S(=O)(=O)c1ccc(C)cc1 | inactive: -1.9%
Cc1n[nH]c(=S)n1/N=C/c1ccc(-c2ccc(Cl)cc2)o1 | inconclusive: -77.6%

Pulled by structure from the entries so far:
Compound | inhibition
COc1ccc(OCc2ccc(/C=N\NC(=O)c3sccc3C)o2)cc1 | inactive: 1.2%
CCS(=O)(=O)C(C)(CCl)C(=O)Nc1ccc(C(=O)OC)cc1 (centres undefined) | inconclusive: 9.5%
CCCCC(=O)Nc1cccc(NC(=O)c2ccc(Br)cc2)c1 | inactive: -3.9%
Cc1ccc(C)n1-c1ccc(N2CCOCC2)c([N+](=O)[O-])c1 | inconclusive: -37.2%
